Measured values published in patent US20210322508A1, “PEPTIDES AND COMPOSITIONS FOR TARGETED TREATMENT AND IMAGING” (SIGNABLOK, INC., priority 2018, published 2021).
At least one peptide structure holds a part that was inferred or is arguable (an end, a ring closure or a residue). Residues, ends and D or L forms follow the SMILES beside them.

Test system: DBA/1 mice with collagen-induced arthritis
Experiment: Collagen-induced arthritis (CIA) model
Settings: free or SLP-bound form; i.p. daily 14 days
Protocol: Animal studies were performed by Bolder BioPATH (Boulder, Colo., USA). CIA was induced in male 6- to 7-week-old DBA/1 mice by immunization with bovine type II collagen. Briefly, mice were injected intradermally with 100 μl of Freund's complete adjuvant containing 250 μg of bovine type II collagen (2 mg/ml final concentration) at the base of the tail on day 0 and again on day 21. On day 24, mice were randomized by body weight into treatment groups. […] Mice were weighed on study days 24, 26, 28, 30, 32, 34, 36 and 38 (prior to necropsy). Daily clinical scores were given on a scale of 0-5 for each of the paws on days 24-38. On day 38, mice were killed for necropsy.
At the end of study, fore paws, hind paws and knees were harvested, fixed in 10% neutral buffered formalin for 1-2 days, and then decalcified in 5% formic acid for 4-5 days before standard processing for paraffin embedding. Sections (8 μm) were cut and stained with toluidine blue (T blue). Hind paws, fore paws and knees were embedded and sectioned in the frontal plane. Six joints from each animal were processed for histopathological evaluation. The joints were then assessed using 0-5 scale for inflammation, pannus formation, cartilage damage, bone resorption and periosteal new bone formation. A summed histopathology score (sum of five parameters, 0-25 scale) was also determined. […]

CC(C)C[C@H](NC(=O)[C@H](Cc1ccccc1)NC(=O)CN)C(=O)N[C@@H](CO)C(=O)N[C@@H](CCCCN)C(=O)N[C@@H](CO)C(=O)N[C@@H](CC(C)C)C(=O)N[C@H](C(=O)N[C@@H](Cc1ccccc1)C(=O)O)C(C)C [GF9] (H-GFLSKSLVF-OH)
CIA severity; bone and cartilage damage: ameliorate CIA and protect against bone and cartilage damage
